Results: patent US9408393B2, “Bismuth-thiols as antiseptics for agricultural, industrial and other uses” (Microbion Corporation, priority 2010, dated 2016)
For some assays here: At least one compound was matched to its structure with a doubt left. Some results were stated once for a whole list of compounds, not compound by compound.

Assays:
[1] = tested on: resistant E. coli; assay: MIC in Mueller-Hinton II broth, antibiotic + BisEDT; type: cell-based, Escherichia coli; conditions: E. coli TET A and TET B strains
Excerpt: Chloramphenicol and ampicillin resistant Escherichia coli were made sensitive to these drugs by the addition of subMIC BisEDT (Table 24).
Tetracycline resistant Escherichia coli were made sensitive to doxycycline by the addition of subMIC BisEDT (Table 25).

[2] = tested on: S. epidermidis; assay: Growth inhibition (MIC) and MBC, BisEDT and antibiotics; type: cell-based, Staphylococcus epidermidis
Excerpt: Results are expressed as the mean change in MIC (dilution steps) with increasing BisEDT (n=3). See legend in FIG. 5 for antibiotic definitions.
The MIC change was most pronounced for clindamycin and gentamicin, followed by vancomycin, cefazolin, minocycline, gatifloxacin and nafcillin, with rifampicin unaffected.
Minimum bactericidal concentration (MBC) for most antibiotics tested against S. epidermidis decreased slightly with subMIC BisEDT. […] Clindamycin is a bacteriostatic agent, which explains its lack of bactericidal activity. Cefazolin resistance was reversed with respect to the MBC [Domenico et al., 2003]. These effects were additive.

Row | SMILES | Interaction, doxycycline + subMIC BisEDT [1] | Reduction in MBC with subMIC BisEDT [2]
1 | C[C@H]1c2cccc(O)c2C(=O)C2=C(O)[C@]3(O)C(=O)C(C(N)=O)=C(O)[C@@H](N(C)C)[C@@H]3[C@@H](O)[C@@H]21 [DOX, doxycycline] | additive effects | 
2 | CN[C@H](CC(C)C)C(=O)N[C@H]1C(=O)N[C@@H](CC(N)=O)C(=O)N[C@H]2C(=O)N[C@H]3C(=O)N[C@H](C(=O)N[C@H](C(=O)O)c4cc(O)cc(O)c4-c4cc3ccc4O)[C@H](O)c3ccc(c(Cl)c3)Oc3cc2cc(c3O[C@@H]2O[C@H](CO)[C@@H](O)[C@H](O)[C@H]2O[C@H]2C[C@](C)(N)[C@H](O)[C@H](C)O2)Oc2ccc(cc2Cl)[C@H]1O [Vancomycin, vancomycin] |  | 3- to 4 fold
